In publication PMC6141588, “Electron microscopy of Chaetomium pom152 shows the assembly of ten-bead string” (Cell Discovery, 2018):
These are yes or no findings as the source states them, for the method shown.

Columns and labels:
[1] = target: Ctpom152^194-1256 (chymotryptic fragment) (Chaetomium thermophilum) (UniProt G0SB44); test: negative-stain EM; purified detergent-free fragment, uranyl acetate stain; both purified
[2] = target: Ctpom152^186-1270 (Chaetomium thermophilum) (UniProt G0SB44); test: SEC-MALS; Ctpom152^186-1270 injected at 6, 4 and 2 mg/mL per injection; both purified

Row | binding [1] | Binder | binding [2]
1 | no binding | Ctpom152^194-1256 (chymotryptic fragment) (domain or fragment, UniProt G0SB44 194-1256) LPEGSAILNPELQPFCLGGDRKTANIPIFFNSTIPVEVELIRTDFETGQQESIKLSKSQLRDIERRAKRESQDGDTVQSIVQFDFPVKKTGAYRLGRVLDEYKLEVQRRNPLTFVVSCPKAWVGPALSAHRCVGDLSDLSMMVEGTPPLKIKYSRMINGKDHSFHFQSLQPEGFVSPLSGLRSNNWGYDEDDISWARAQKVPVGLNESMHSSGDWQYSIDEVQDGFGNIIKYDSLADDPDGKPKPKHLTQSFVVKKRPVIRLEGCDLRHPLKVAKGKSKNLPVSYGLSGGSREDSTYQIAWQFSPIDTLTESGDHGDVVTIGTYTAKNNRDRPTISAPGLYTLKSVSASQCEGEIQEPSSCLLLNPLEPRLSLRHEEIPDTCAGNSIGLRVDLDLIGTPPFIVRYDVISNGERRSERVSIPGLRYQLDLVPRIAGHHKYIFTHVGDSIYDGQKLSGPEYVLEQDVKPAAAALIQHSTGKMSSCLGDQVTVDILLLGDPPFTLEWELIHDGKRKQFKVPNIQENSYQIKTAPLTTGGEYTLGLTSVQDKRGCRNFLQEELKISVRRQSPRAAFGQVDGKRKILAVEGSSVKLPLRLTGEGPWKVYYANLHDGSPDKPKVQEKIIKSDNGFLEVRGRGAFAITDVWDSQCHGVVDPKASRFDVDWFPRPELSVALTHGVSKTETGFQLQDVCEGDVSGFEVALKGTPPFTVEYEVRHHPLQGSSSLSKKKIEGVVGKEAIQADTSKAGTYTYKFTALEDDLYSSNRGFQPIIVKQNVNRKPTASFVKPGQTFKYCKSEQDNEDGIPITLTGVPPFFLEVEIKHQSAAVPEIYRTPAIDSHSYELKIPRHHLRLGTQHIRIRDIRDGSGCHSTSGILSGPSVQVQLFEAPTIYPLETRTDYCVGERISYTLSGQAPFEVWYTFNGVELKAKSPNTNFRRIAESPGEFTITSVSDKASECRAPVSITKTIHPLPAVRISKGKSVRVDIHEGGEVDILFEFFGTPPFEFTYTRSTNARKGQKSQVLETRHDISHEHSKVIKASQEGTYEVVAIKDKYCSFSTQAVVGL | –
2 | – | Ctpom152^186-1270 (domain or fragment, UniProt G0SB44 186-1270) MGRQIINILPEGSAILNPELQPFCLGGDRKTANIPIFFNSTIPVEVELIRTDFETGQQESIKLSKSQLRDIERRAKRESQDGDTVQSIVQFDFPVKKTGAYRLGRVLDEYKLEVQRRNPLTFVVSCPKAWVGPALSAHRCVGDLSDLSMMVEGTPPLKIKYSRMINGKDHSFHFQSLQPEGFVSPLSGLRSNNWGYDEDDISWARAQKVPVGLNESMHSSGDWQYSIDEVQDGFGNIIKYDSLADDPDGKPKPKHLTQSFVVKKRPVIRLEGCDLRHPLKVAKGKSKNLPVSYGLSGGSREDSTYQIAWQFSPIDTLTESGDHGDVVTIGTYTAKNNRDRPTISAPGLYTLKSVSASQCEGEIQEPSSCLLLNPLEPRLSLRHEEIPDTCAGNSIGLRVDLDLIGTPPFIVRYDVISNGERRSERVSIPGLRYQLDLVPRIAGHHKYIFTHVGDSIYDGQKLSGPEYVLEQDVKPAAAALIQHSTGKMSSCLGDQVTVDILLLGDPPFTLEWELIHDGKRKQFKVPNIQENSYQIKTAPLTTGGEYTLGLTSVQDKRGCRNFLQEELKISVRRQSPRAAFGQVDGKRKILAVEGSSVKLPLRLTGEGPWKVYYANLHDGSPDKPKVQEKIIKSDNGFLEVRGRGAFAITDVWDSQCHGVVDPKASRFDVDWFPRPELSVALTHGVSKTETGFQLQDVCEGDVSGFEVALKGTPPFTVEYEVRHHPLQGSSSLSKKKIEGVVGKEAIQADTSKAGTYTYKFTALEDDLYSSNRGFQPIIVKQNVNRKPTASFVKPGQTFKYCKSEQDNEDGIPITLTGVPPFFLEVEIKHQSAAVPEIYRTPAIDSHSYELKIPRHHLRLGTQHIRIRDIRDGSGCHSTSGILSGPSVQVQLFEAPTIYPLETRTDYCVGERISYTLSGQAPFEVWYTFNGVELKAKSPNTNFRRIAESPGEFTITSVSDKASECRAPVSITKTIHPLPAVRISKGKSVRVDIHEGGEVDILFEFFGTPPFEFTYTRSTNARKGQKSQVLETRHDISHEHSKVIKASQEGTYEVVAIKDKYCSFSTQAVVGLEGGKKDKTKKLKVY | no binding (tested: 6 mg/mL per injection)
